Source: PubChem BioAssay AID2685 (National Center for Advancing Translational Sciences (NCATS), 2010)
The other results are listed elsewhere or left out. Shown are side measurements of this screen, not its main read-out; they come without a call. Compounds called inactive in the main read-out are mostly missing here. The note in brackets gives the kind of curve behind each potency; many fits are weak.

Test: qHTS Assay for Lipid Storage Modulators in Drosophila S3 Cells;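 as to cell number change: cells counted by Cell Tracker Red CMTPX staining in the red channel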
Conditions: BODIPY lipid droplet fluorescence, 18-24 h; for cell number change: measured here: cell count max response, cells fed with added oleic acid
Summary of the method: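 Laser-scanning cytometry quantifies lipid droplet accumulation (500–530 nm total intensity; droplet/cell object ratio) in oleic acid-fed (400 uM added) Drosophila S3 cells treated with a concentration series. 20 uM Triacsin C defined 100% inhibition.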

[1] = measured here: lipid fluorescence (Fed channel) AC50, cells fed with added oleic acid
[2] = measured here: cell number channel AC50, cells fed with added oleic acid

SMILES | AC50 [1] | cell number change | AC50 [2]
CCOc1ccc(OCC)c(S(=O)(=O)NCc2ccc3c(c2)OCO3)c1 | 0.00461 µM [rising, full curve, poor fit] | – | –
COc1cccc(/C=C2\SC(=S)N(CCC(=O)Nc3ccc(O)cc3)C2=O)c1 | 32.6 µM [falling, single point] | -6.38% | –
CCN(CC)C(=O)CSc1nc(-c2ccco2)cc(C(F)(F)F)c1C#N | 14.6 µM [falling, partial curve] | -47.1% | 11.6 µM [falling, partial curve, poor fit]
Cc1ccccc1NC(=O)C(C)Sc1nnc(-c2ccncc2)n1CC1CCCO1 (stereo not drawn) | 0.112 µM [falling, full curve, poor fit] | – | –
CC(Oc1ccc(Cl)cc1Cl)C(=O)Nc1ccc(N2CCN(C)CC2)cc1 (stereo not drawn) | – | -37.7% | 29.1 µM [falling, single point]
COc1cccc(NC(=O)CSCc2n[nH]c(=O)[nH]2)c1 | 29.1 µM [falling, single point] | -4.37% | –
CCC1COC(c2cccn2Cc2ccccc2Cl)=N1 (stereo not drawn) | 0.058 µM [falling, full curve, poor fit] | -20.8% | –
COc1cccc(-n2cnnc2SC(C)C(=O)NC2CCCC2)c1 (stereo not drawn) | 0.146 µM [falling, full curve, poor fit] | -12.9% | –
Cn1c(=O)oc2cc(S(=O)(=O)N3CCN(c4ccc(F)cc4)CC3)ccc21 | 0.82 µM [falling, single point] | – | –
CC1CCC/C(=N\NC(=O)COc2ccc(Cl)cc2Cl)C1 (stereo not drawn) | – | 47.7% | 23.1 µM [rising, single point]
N/C(=N\OC(=O)c1csnn1)c1ccc(C(F)(F)F)cc1 | – | 34.7% | 7.31 µM [rising, full curve, poor fit]
CCC(C)NS(=O)(=O)c1ccc(S(=O)(=O)N(CCc2ccc(OC)c(OC)c2)Cc2cccs2)cc1 (stereo not drawn) | 18.4 µM [falling, single point] | -16.2% | –
NS(=O)(=O)c1ccc(NC(=O)C2CCCO2)cc1 (stereo not drawn) | – | -44.8% | 16.4 µM [falling, single point]
CCN(c1ccccc1)S(=O)(=O)c1ccc(F)c(C(=O)O)c1 | – | 7.34% | –
CC(C)(C)NC(=O)C(Cc1ccccc1)NS(=O)(=O)c1ccc2c(c1)CCC(=O)N2 (stereo not drawn) | 20.6 µM [rising, partial curve] | 159% | 18.4 µM [rising, partial curve]
COc1cc(CNc2ccc3c(c2)OCCO3)ccc1OCC(N)=O | 0.92 µM [falling, full curve, poor fit] | 0.722% | –
CCOc1ccc(C(C)(C)C)cc1S(=O)(=O)N1CC(C)OC(C)C1 (stereo not drawn) | – | 7.94% | –
CC1CCCC(NC(=O)COC(=O)c2ccccc2NC(=O)c2ccco2)C1C (stereo not drawn) | 0.651 µM [rising, full curve] | 66.9% | 0.92 µM [rising, partial curve]
Cc1cc(OCC(=O)NCCN2CCOCC2)cc(C)c1Cl | 29.1 µM [rising, partial curve] | 14.4% | –
Cc1cc(C)n(-c2nc3ccccc3nc2N2CCC(C)CC2)n1 | 2.31 µM [rising, partial curve] | -24.5% | 2.59 µM [rising, single point]

Not a retest: entries from further up.
SMILES | AC50 [1] | cell number change | AC50 [2]
COc1cccc(NC(=O)CSCc2n[nH]c(=O)[nH]2)c1 | 29.1 µM [falling, single point] | -4.37% | –
CCC1COC(c2cccn2Cc2ccccc2Cl)=N1 (stereo not drawn) | 0.058 µM [falling, full curve, poor fit] | -20.8% | –
COc1cccc(-n2cnnc2SC(C)C(=O)NC2CCCC2)c1 (stereo not drawn) | 0.146 µM [falling, full curve, poor fit] | -12.9% | –
Cn1c(=O)oc2cc(S(=O)(=O)N3CCN(c4ccc(F)cc4)CC3)ccc21 | 0.82 µM [falling, single point] | – | –
CC1CCC/C(=N\NC(=O)COc2ccc(Cl)cc2Cl)C1 (stereo not drawn) | – | 47.7% | 23.1 µM [rising, single point]
N/C(=N\OC(=O)c1csnn1)c1ccc(C(F)(F)F)cc1 | – | 34.7% | 7.31 µM [rising, full curve, poor fit]
CCC(C)NS(=O)(=O)c1ccc(S(=O)(=O)N(CCc2ccc(OC)c(OC)c2)Cc2cccs2)cc1 (stereo not drawn) | 18.4 µM [falling, single point] | -16.2% | –
NS(=O)(=O)c1ccc(NC(=O)C2CCCO2)cc1 (stereo not drawn) | – | -44.8% | 16.4 µM [falling, single point]
CCN(c1ccccc1)S(=O)(=O)c1ccc(F)c(C(=O)O)c1 | – | 7.34% | –

Next results.

SMILES | AC50 [1] | cell number change | AC50 [2]
Cc1ccc(NS(=O)(=O)c2c(C(=O)N3CCCCCC3)c(C)n(C)c2C)c(C)c1 | – | 8.49% | –
O=C(NCc1ccco1)C12CN(Cc3ccccc3)CC1C(c1cccc([N+](=O)[O-])c1)=NO2 (stereo not drawn) | – | -16.6% | 3.66 µM [rising, single point]
O=S(=O)(c1ccc(Cl)cc1)c1nc(-c2ccco2)oc1N1CCCCC1 | 32.6 µM [falling, single point] | -3.06% | –
O=C(c1ccco1)N1CCN(Cc2cc(=O)c(OCc3cccc(F)c3)co2)CC1 | – | 44.6% | 13 µM [rising, partial curve, poor fit]
CC(=O)c1cccc(NC(=O)CN2CCc3cc4c(cc3C2C)OCCCO4)c1 (stereo not drawn) | – | -2.69% | –
CCn1c2ccccc2c2cc(NC(=O)COC(=O)Cc3cn4ccsc4n3)ccc21 | – | -8.09% | 4.11 µM [rising, single point]
Cc1cnc(C(=O)OCC(=O)N(C)CC(=O)Nc2ccccc2Cl)cn1 | 23.1 µM [rising, single point] | -6.73% | –
CSc1ccccc1NC(=O)c1ccco1 | 3.66 µM [falling, single point] | 18.4% | –
O=C(Nc1ccc(S(=O)(=O)NCC2CCCO2)cc1)c1ccc(Cl)cc1[N+](=O)[O-] (stereo not drawn) | 5.17 µM [falling, single point] | -3.08% | –
COc1ccc(CCNC(=O)CSCc2ccc(Cl)cc2)cc1OC | – | 29.6% | 4.61 µM [rising, full curve, poor fit]
CC(=O)Nc1ccc(S(=O)(=O)NCCCN2CCOCC2)cc1 | – | -17.1% | –
CC(=O)c1cccc(NC(=O)CSc2nnc(C(C)N(C)C)n2-c2ccc(F)cc2)c1 (stereo not drawn) | 0.13 µM [rising, partial curve, poor fit] | 28.6% | –
CC(C)c1ccc(NC(=O)C2CC(=O)Nc3nc4ccccc4n32)cc1 (stereo not drawn) | 0.411 µM [falling, full curve, poor fit] | -17.2% | –
CCn1c(=O)n(CC)c2cc(S(=O)(=O)NCCOc3ccccc3)c(C)cc21 | – | -8.91% | –
O=C(Cc1ccc(-n2cnnn2)cc1)NC12CC3CC(CC(C3)C1)C2 | 3.66 µM [falling, full curve] | 17.5% | –
C=C(C)CSc1nc2nc(C)cc(C)n2n1 | 7.31 µM [rising, partial curve] | 19.2% | –
Oc1ccc(-c2nc3ncccn3c2Nc2ccc3c(c2)OCO3)cc1 | 5.8 µM [rising, partial curve] | 17.7% | –
CCCOC(=O)CSC1=C(C#N)C(c2ccccc2Cl)CC(=O)N1 (stereo not drawn) | – | -1.66% | –
Cc1ccc(N=C2NC(=O)/C(=C/c3cccs3)S2)cc1C | 23.1 µM [rising, partial curve] | 36.8% | 8.2 µM [rising, partial curve]
